Measured data: PubChem BioAssay AID1159584 (Peter MacCallum Cancer Centre, 2016)
This is a random part of about 18,000 deposited reagents. Further read-outs or replicates are left out here. Not given: the amount of reagent, the time to read-out.

- Purpose: 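Genes that CDH1-null MCF10A cells selectively depend on to survive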 (primary screen)
- Cells: human MCF10A breast epithelial cells, parental and CDH1-null
- Reagent: siRNA against human genes
- Measurement: 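Cell viability by CellTiter-Glo ATP luminescence, each line scaled to the mean of mock wells across plates, then CDH1-null over parental ratio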
- Reading the numbers: CDH1-null / parental viability ratio: higher = CDH1-null cells survive relatively better than parental

COG1 (component of oligomeric golgi complex 1) → CDH1-null / parental viability ratio: 1.15
ARHGAP29 (Rho GTPase activating protein 29) → CDH1-null / parental viability ratio: 0.62
SLC35C1 → CDH1-null / parental viability ratio: 1.02
POLR2F (RNA polymerase II, I and III subunit F) → CDH1-null / parental viability ratio: 1.96
ENTPD6 (ectonucleoside triphosphate diphosphohydrolase 6) → CDH1-null / parental viability ratio: 0.93
SLC25A43 → CDH1-null / parental viability ratio: 0.9
CHPF (chondroitin polymerizing factor) → CDH1-null / parental viability ratio: 1.01
PRXL2C (peroxiredoxin like 2C) → CDH1-null / parental viability ratio: 1.14
BCL9L (BCL9 like) → CDH1-null / parental viability ratio: 1.02
NPY2R (neuropeptide Y receptor Y2) → CDH1-null / parental viability ratio: 1.09
ATG4A (autophagy related 4A cysteine peptidase) → CDH1-null / parental viability ratio: 1.22
POLB (DNA polymerase beta) → CDH1-null / parental viability ratio: 1.37
FBXW7 (F-box and WD repeat domain containing 7) → CDH1-null / parental viability ratio: 1.17
CALM3 (calmodulin 3) → CDH1-null / parental viability ratio: 0.97
DDOST → CDH1-null / parental viability ratio: 1.03
ADAM2 (ADAM metallopeptidase domain 2) → CDH1-null / parental viability ratio: 1.03
LINC00482 (long independently transcribed non-coding RNA 482) → CDH1-null / parental viability ratio: 0.96
DRC7 (dynein regulatory complex subunit 7) → CDH1-null / parental viability ratio: 1
MYH7B (myosin heavy chain 7B) → CDH1-null / parental viability ratio: 1.08
CNIH2 (cornichon family AMPA receptor auxiliary protein 2) → CDH1-null / parental viability ratio: 0.68
ARHGAP8 (Rho GTPase activating protein 8) → CDH1-null / parental viability ratio: 0.85
EDF1 (endothelial differentiation related factor 1) → CDH1-null / parental viability ratio: 0.95
ITGB2 (integrin subunit beta 2) → CDH1-null / parental viability ratio: 0.99
YY1AP1 (YY1 associated protein 1) → CDH1-null / parental viability ratio: 0.88
SSX6P (SSX family member 6, pseudogene) → CDH1-null / parental viability ratio: 1.43
WNT10A (Wnt family member 10A) → CDH1-null / parental viability ratio: 0.87
DYNLT2B (dynein light chain Tctex-type 2B) → CDH1-null / parental viability ratio: 1.02
LYZL6 (lysozyme like 6) → CDH1-null / parental viability ratio: 1.19
B4GALT2 (beta-1,4-galactosyltransferase 2) → CDH1-null / parental viability ratio: 0.85
MAFB (MAF bZIP transcription factor B) → CDH1-null / parental viability ratio: 1.2
MRGPRX3 (MAS related GPR family member X3) → CDH1-null / parental viability ratio: 0.86
ACAD9 (acyl-CoA dehydrogenase family member 9) → CDH1-null / parental viability ratio: 0.82
EXO5 (exonuclease 5) → CDH1-null / parental viability ratio: 0.91
OR8J1 (olfactory receptor family 8 subfamily J member 1) → CDH1-null / parental viability ratio: 0.99
SEC31B (SEC31 homolog B, COPII component) → CDH1-null / parental viability ratio: 0.98

As entered above.
OR8J1 (olfactory receptor family 8 subfamily J member 1), CDH1-null / parental viability ratio → 0.99
Result of ADAM2 (ADAM metallopeptidase domain 2) in “CDH1-null / parental viability ratio”: 1.03
CALM3 (calmodulin 3), CDH1-null / parental viability ratio → 0.97
